# Values from PubChem BioAssay AID1259405 (NCATS, 2018).
# Purpose: 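Knock-downs that lift recombinant protein yield in hamster ovary cells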 (primary screen)
# System: Chinese hamster CHO-K1 ovary cells with stable secreted eGFP expression
# Reagents: single siRNA against mouse genes, 0.8 pmol siRNA per well (2 µl of 400 nM stock)
# Duration: 3 days
# Measurement: 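Per-well intracellular GFP measured by laser scanning cytometry, plus viability from ATP luminescence, each relative to plate median of non-targeting control wells, in %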
# Scale: GFP, % of control: higher = more GFP per well, higher productivity; viability (ATP), % of control: higher = more viable cells (more ATP)
# Hit rule: 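Called active when intracellular GFP, relative to negative control, is at or above 120%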
# The deposit covers about 50,000 reagents; below is a random part of them. About 4,000 of them (8%) count as active. 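Mouse siRNA library applied to hamster cells; one well for each siRNA.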 The numbers tell different reagents against one gene apart.
gene symbol,siRNA no.,"GFP, % of control","viability (ATP), % of control",outcome
Trmt1 (GeneID 212528),1,57.2,60.8,inactive
Trmt1 (GeneID 212528),2,110,69,inactive
Trmt1 (GeneID 212528),3,62.6,75.9,inactive
Ect2 (GeneID 13605),1,72.4,77.1,inactive
Ect2 (GeneID 13605),2,82,64.1,inactive
6430548M08Rik (GeneID 234797),1,43.6,26.4,inactive
6430548M08Rik (GeneID 234797),2,131,85.3,active
6430548M08Rik (GeneID 234797),3,161,158,active
Repin1 (GeneID 58887),1,42.3,58,inactive
Repin1 (GeneID 58887),2,73.8,76.5,inactive
Repin1 (GeneID 58887),3,65.5,92,inactive
Lpar1 (GeneID 14745),1,82.3,105,inactive
Lpar1 (GeneID 14745),2,48.8,85.1,inactive
Lpar1 (GeneID 14745),3,65.9,62.8,inactive

Reagents above with an active call, once more:
gene symbol,siRNA no.,"GFP, % of control","viability (ATP), % of control",outcome
6430548M08Rik (GeneID 234797),2,131,85.3,active
6430548M08Rik (GeneID 234797),3,161,158,active

Additional results follow:
gene symbol,siRNA no.,"GFP, % of control","viability (ATP), % of control",outcome
Pou2af1 (GeneID 18985),1,34.1,36.6,inactive
Pou2af1 (GeneID 18985),2,70.5,50.7,inactive
Pou2af1 (GeneID 18985),3,95.4,113,inactive
Taco1 (GeneID 70207),1,94.1,98.8,inactive
Taco1 (GeneID 70207),2,52,48.2,inactive
Taco1 (GeneID 70207),3,104,89.4,inactive
Klk8 (GeneID 259277),1,61.2,76.7,inactive
Klk8 (GeneID 259277),2,69.4,55.9,inactive
Klk8 (GeneID 259277),3,39,43.4,inactive
Or6k2 (GeneID 258302),1,41.4,38.5,inactive
Or6k2 (GeneID 258302),2,117,96.4,inactive
Or6k2 (GeneID 258302),3,115,57.8,inactive
Apoc2 (GeneID 11813),1,106,77.9,inactive
Apoc2 (GeneID 11813),2,71.9,67.2,inactive
Apoc2 (GeneID 11813),3,88.8,53.3,inactive
Tspyl2 (GeneID 52808),1,96.3,48.8,inactive
Tspyl2 (GeneID 52808),2,77.5,61.4,inactive
Tspyl2 (GeneID 52808),3,74.3,72.6,inactive
Rsrc2 (GeneID 208606),1,72.1,62.2,inactive
Rsrc2 (GeneID 208606),2,71.9,70,inactive
Rsrc2 (GeneID 208606),3,85.2,82.8,inactive
